No constants are given. Whether binding was seen depends on the method and setting. In cells and extracts the contact can be indirect. A result given as binding can be weak or reduced; the word gives no strength.

By UniProt entry, the sequences of proteins in these tests, tags left out. Where a name states a change or a piece, a line headed by the entry shows the natural chain unless it says otherwise.
UniProt P22216: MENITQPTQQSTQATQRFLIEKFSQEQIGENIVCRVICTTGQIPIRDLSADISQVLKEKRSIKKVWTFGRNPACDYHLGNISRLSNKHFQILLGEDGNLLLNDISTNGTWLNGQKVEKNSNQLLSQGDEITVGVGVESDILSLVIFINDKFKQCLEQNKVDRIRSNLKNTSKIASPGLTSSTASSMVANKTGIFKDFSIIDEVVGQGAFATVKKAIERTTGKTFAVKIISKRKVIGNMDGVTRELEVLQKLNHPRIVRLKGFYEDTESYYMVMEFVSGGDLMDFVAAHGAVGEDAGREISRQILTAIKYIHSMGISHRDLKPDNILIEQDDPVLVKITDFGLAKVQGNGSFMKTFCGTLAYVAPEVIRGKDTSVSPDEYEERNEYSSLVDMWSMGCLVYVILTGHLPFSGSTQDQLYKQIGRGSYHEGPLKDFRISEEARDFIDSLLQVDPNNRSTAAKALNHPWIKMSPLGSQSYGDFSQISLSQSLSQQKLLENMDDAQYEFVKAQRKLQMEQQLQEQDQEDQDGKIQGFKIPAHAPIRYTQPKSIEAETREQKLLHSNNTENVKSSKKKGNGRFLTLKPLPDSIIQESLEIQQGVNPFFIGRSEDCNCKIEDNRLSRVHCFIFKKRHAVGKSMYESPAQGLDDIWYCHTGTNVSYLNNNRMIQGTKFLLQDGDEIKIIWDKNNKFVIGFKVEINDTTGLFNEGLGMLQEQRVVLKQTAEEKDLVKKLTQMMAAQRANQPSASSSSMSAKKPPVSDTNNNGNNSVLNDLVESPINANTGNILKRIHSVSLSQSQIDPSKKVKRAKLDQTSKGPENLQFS
UniProt P38086: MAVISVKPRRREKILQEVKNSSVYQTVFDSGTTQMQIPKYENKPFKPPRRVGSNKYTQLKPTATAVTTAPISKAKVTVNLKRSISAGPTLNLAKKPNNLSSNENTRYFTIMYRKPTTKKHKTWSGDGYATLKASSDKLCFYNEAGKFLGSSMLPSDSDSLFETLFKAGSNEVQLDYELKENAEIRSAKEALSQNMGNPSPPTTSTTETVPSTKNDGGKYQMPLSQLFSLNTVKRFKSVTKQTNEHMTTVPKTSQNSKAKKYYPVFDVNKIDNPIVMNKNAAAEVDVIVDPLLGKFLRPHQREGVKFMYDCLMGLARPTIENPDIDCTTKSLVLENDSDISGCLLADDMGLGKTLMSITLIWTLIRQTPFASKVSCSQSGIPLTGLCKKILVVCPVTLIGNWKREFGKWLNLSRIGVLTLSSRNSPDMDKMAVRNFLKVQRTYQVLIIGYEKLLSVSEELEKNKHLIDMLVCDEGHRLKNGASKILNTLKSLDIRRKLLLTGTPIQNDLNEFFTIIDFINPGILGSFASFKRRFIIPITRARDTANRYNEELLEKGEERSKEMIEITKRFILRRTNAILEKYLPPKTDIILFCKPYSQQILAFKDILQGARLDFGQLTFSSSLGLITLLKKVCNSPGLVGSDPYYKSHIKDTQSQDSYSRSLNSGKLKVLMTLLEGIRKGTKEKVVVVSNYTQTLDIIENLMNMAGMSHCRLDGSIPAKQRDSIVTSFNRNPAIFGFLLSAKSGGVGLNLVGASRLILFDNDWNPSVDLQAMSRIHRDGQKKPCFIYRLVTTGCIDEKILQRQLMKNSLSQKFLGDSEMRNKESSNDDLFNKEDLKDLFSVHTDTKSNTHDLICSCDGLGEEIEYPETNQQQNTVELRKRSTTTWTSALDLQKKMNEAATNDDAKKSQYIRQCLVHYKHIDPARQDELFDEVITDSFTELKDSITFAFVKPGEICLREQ

Our source for the binding values is paper PMC10681728, “Rad53 regulates the lifetime of Rdh54 at homologous recombination intermediates” (Nucleic Acids Research, 2023).

In the assay the target is Rad53 (S. cerevisiae (endogenous in yeast)) (UniProt P22216). The assay can be described thus: co-IP; yeast whole cell extract (300 mM NaCl lysis, 500 mM NaCl washes), anti-RAD53 on Dynabeads Protein G overnight at 4°C, blot with anti-HA; cells with 2% galactose (HO break induced) or 2% dextrose for 2 h.

In the case of “Rdh54 (HA-tagged, in yeast) (from UniProt P38086)”, the binding entry was “binds”.
